Measurements reported in PubChem BioAssay AID720505 (Drosophila RNAi Screening Center, 2013).

Purpose: 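Genes needed for store-operated calcium entry in fly cells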 (primary screen)
Cells: Drosophila S2R+ cells
Knock-down reagent: long dsRNA against Drosophila genes
Challenge: thapsigargin (2 µM) in calcium-free buffer to empty internal stores, then 2 mM calcium added back
Read-out: 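Stores emptied by 2 µM thapsigargin without calcium, then 2 mM calcium re-added; fluo-4 fluorescence followed by FLIPR in 384-well plates, per-well averaged endpoint, raw; two screen passes, some wells retested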
Scale: calcium signal and retest calcium signal: higher = more calcium entry after store depletion
Active means: 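Knock-downs counted as hits when calcium entry dropped relative to STIM1 positive and Rho1 negative controls present on each plate; roughly 1500 genes called, with reductions of differing size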
Meaning of the calls: active = called as lowering calcium entry; inactive = not called
The screen tested about 20,000 reagents; this is an unselected part of those that have a named target and a result. Over the whole deposit, about 2,100 (10%) got an active call. 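Raw plate signals without normalisation; calls rest on control-based scores that were not deposited; replicate 2 separates called from uncalled poorly.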 The numbers tell different reagents against one gene apart. Names joined by + are all predicted targets of the reagent. The record does not give: the amount of reagent, the time to read-out.

| target | dsRNA no. | calcium signal, replicate 1 | calcium signal, replicate 2 | retest calcium signal, replicate 1 | retest calcium signal, replicate 2 | Outcome |
| --- | --- | --- | --- | --- | --- | --- |
| t-Grip84 | 1 | 97.2 | 81.1 | – | – | inactive |
| Ras85D | 1 | 85 | 83.8 | – | – | inactive |
| CG8925 | 1 | 151 | 175 | – | – | inactive |
| CG8925 | 2 | 155 | 227 | – | – | inactive |
| CG8925 | 3 | 160 | 181 | – | – | inactive |
| Fas1 | 1 | 163 | 129 | – | – | inactive |
| CG31687 + Cdc23 | 1 | 124 | 150 | – | – | inactive |
| Cyp4d8 | 1 | 118 | 97.6 | – | – | inactive |
| Mccc1 | 1 | 140 | 102 | – | – | inactive |
| CG31921 | 1 | 119 | 144 | – | – | inactive |
| Ack | 1 | 92.5 | 100 | – | – | inactive |
| Ire1 | 1 | 161 | 152 | – | – | inactive |
| CG13324 | 1 | 81 | 130 | – | – | inactive |
| GluRIB | 1 | 56.8 | 107 | – | – | inactive |
| GluRIB | 2 | 91.5 | 108 | – | – | inactive |
| RpL26 | 1 | 73.1 | 92.6 | – | – | inactive |
| CG6340 | 1 | 63.6 | 114 | 4737 | 124 | active |
| CG43078 | 1 | 105 | 112 | – | – | inactive |
| CG43078 | 2 | 93.2 | 109 | – | – | inactive |
| CG43078 | 3 | 283 | 118 | – | – | inactive |
| CG43078 | 4 | 66.3 | 244 | – | – | inactive |
| CG5273 | 1 | 79.8 | 107 | – | – | inactive |
| CG4281 | 1 | 104 | 180 | – | – | inactive |
| HDAC1 | 1 | 58.6 | 107 | – | – | active |
| Rac2 | 1 | 79.7 | 51.5 | – | – | inactive |
| Mal-A2 | 1 | 150 | 114 | – | – | inactive |
| CG5335 | 1 | 72.8 | 150 | – | – | active |
| CG34277 + CG31542 | 1 | 242 | 111 | – | – | inactive |
| CG30083 | 1 | 89.9 | 144 | – | – | inactive |
| Fbp2 | 1 | 108 | 113 | – | – | inactive |
| CR32511 | 1 | 127 | 133 | – | – | inactive |
| CG17361 | 1 | 82.9 | 105 | – | – | inactive |
| Trpml + CG42638 | 1 | 76.7 | 84.1 | – | – | inactive |
| CG9698 | 1 | 161 | 94 | – | – | inactive |
| CG32074 | 1 | 119 | 139 | – | – | inactive |
| Ugt303B2 | 1 | 218 | 162 | – | – | inactive |
| Ugt303B2 | 2 | 76.8 | 78.2 | – | – | inactive |
| Cyp317a1 | 1 | 159 | 171 | – | – | inactive |
| sll | 1 | 191 | 278 | – | – | inactive |
| CG5623 | 1 | 132 | 126 | – | – | inactive |
| PCID2 | 1 | 109 | 142 | – | – | inactive |
| Ns1 | 1 | 135 | 178 | – | – | inactive |
| CycH | 1 | 91 | 208 | – | – | inactive |
| CycH | 2 | 73.2 | 158 | – | – | inactive |
| CG14657 | 1 | 85.5 | 95.5 | – | – | inactive |
| CG14657 | 2 | 96.3 | 113 | – | – | inactive |
| CG5399 | 1 | 119 | 126 | – | – | inactive |
| MKP-4 | 1 | 115 | 94.4 | – | – | inactive |
| CG5323 | 1 | 149 | 196 | – | – | inactive |
| JhI-26 | 1 | 74.6 | 168 | – | – | active |
| PIP82 | 1 | 208 | 81.5 | – | – | inactive |
| Vps25 | 1 | 109 | 120 | – | – | inactive |
| mamo | 1 | 62.3 | 68.4 | – | – | active |
| mamo | 2 | 105 | 133 | – | – | inactive |
| mamo | 3 | 92.1 | 131 | – | – | inactive |
| mamo | 4 | 134 | 127 | 7096 | 96.8 | inactive |
| mamo | 5 | 109 | 123 | 7220 | 89.3 | inactive |
| mamo | 6 | 102 | 156 | – | – | inactive |

9 entries already listed, ordered by “calcium signal, replicate 2”, lowest first.
| target | dsRNA no. | calcium signal, replicate 1 | calcium signal, replicate 2 | retest calcium signal, replicate 1 | retest calcium signal, replicate 2 | Outcome |
| --- | --- | --- | --- | --- | --- | --- |
| Cyp4d8 | 1 | 118 | 97.6 | – | – | inactive |
| Ack | 1 | 92.5 | 100 | – | – | inactive |
| Mccc1 | 1 | 140 | 102 | – | – | inactive |
| Fas1 | 1 | 163 | 129 | – | – | inactive |
| CG31921 | 1 | 119 | 144 | – | – | inactive |
| CG31687 + Cdc23 | 1 | 124 | 150 | – | – | inactive |
| CG8925 | 1 | 151 | 175 | – | – | inactive |
| CG8925 | 3 | 160 | 181 | – | – | inactive |
| CG8925 | 2 | 155 | 227 | – | – | inactive |
